From the supplement of paper PMC10849652
This is one part of the list.

Chains of the proteins cited; added tags and fusions are not shown. Lines headed by an entry give the natural chain unless they say otherwise; changes in a name come on top.
UniProt Q92611: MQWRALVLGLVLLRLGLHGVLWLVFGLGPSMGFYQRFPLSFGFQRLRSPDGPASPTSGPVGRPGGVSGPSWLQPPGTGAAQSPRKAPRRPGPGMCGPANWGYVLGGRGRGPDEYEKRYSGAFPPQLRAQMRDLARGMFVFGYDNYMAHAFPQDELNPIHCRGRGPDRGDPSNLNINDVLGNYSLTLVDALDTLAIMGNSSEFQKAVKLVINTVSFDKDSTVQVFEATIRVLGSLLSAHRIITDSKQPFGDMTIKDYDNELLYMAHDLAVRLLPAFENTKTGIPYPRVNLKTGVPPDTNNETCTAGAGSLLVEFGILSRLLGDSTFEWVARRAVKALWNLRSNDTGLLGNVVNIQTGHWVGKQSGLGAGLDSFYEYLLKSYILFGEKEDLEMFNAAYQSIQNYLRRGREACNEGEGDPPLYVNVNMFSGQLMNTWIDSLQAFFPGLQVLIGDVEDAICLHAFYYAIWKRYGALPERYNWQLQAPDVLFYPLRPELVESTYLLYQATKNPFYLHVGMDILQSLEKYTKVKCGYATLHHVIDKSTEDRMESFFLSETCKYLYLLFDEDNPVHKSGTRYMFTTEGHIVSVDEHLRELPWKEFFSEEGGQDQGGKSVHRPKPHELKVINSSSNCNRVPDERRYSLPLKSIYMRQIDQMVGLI
UniProt Q8WWZ3: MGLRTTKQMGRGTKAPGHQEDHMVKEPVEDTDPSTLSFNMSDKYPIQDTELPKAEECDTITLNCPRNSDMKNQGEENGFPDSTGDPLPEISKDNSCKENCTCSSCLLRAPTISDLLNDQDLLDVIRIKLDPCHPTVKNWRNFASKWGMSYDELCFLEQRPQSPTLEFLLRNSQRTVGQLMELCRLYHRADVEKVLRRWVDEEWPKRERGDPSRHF
UniProt P41567, whole entry, looked up: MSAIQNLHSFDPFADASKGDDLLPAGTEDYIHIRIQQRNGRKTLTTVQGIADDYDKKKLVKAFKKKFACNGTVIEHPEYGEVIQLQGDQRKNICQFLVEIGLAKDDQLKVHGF
UniProt O95620: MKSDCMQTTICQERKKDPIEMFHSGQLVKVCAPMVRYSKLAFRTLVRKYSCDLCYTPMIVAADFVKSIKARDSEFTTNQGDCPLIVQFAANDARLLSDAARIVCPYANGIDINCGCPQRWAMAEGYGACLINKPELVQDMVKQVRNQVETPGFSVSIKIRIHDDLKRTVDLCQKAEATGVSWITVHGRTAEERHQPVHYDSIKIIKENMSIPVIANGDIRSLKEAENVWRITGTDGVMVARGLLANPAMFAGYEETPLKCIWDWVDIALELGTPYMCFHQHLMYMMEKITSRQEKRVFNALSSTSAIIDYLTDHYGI
UniProt Q14204, whole entry, looked up: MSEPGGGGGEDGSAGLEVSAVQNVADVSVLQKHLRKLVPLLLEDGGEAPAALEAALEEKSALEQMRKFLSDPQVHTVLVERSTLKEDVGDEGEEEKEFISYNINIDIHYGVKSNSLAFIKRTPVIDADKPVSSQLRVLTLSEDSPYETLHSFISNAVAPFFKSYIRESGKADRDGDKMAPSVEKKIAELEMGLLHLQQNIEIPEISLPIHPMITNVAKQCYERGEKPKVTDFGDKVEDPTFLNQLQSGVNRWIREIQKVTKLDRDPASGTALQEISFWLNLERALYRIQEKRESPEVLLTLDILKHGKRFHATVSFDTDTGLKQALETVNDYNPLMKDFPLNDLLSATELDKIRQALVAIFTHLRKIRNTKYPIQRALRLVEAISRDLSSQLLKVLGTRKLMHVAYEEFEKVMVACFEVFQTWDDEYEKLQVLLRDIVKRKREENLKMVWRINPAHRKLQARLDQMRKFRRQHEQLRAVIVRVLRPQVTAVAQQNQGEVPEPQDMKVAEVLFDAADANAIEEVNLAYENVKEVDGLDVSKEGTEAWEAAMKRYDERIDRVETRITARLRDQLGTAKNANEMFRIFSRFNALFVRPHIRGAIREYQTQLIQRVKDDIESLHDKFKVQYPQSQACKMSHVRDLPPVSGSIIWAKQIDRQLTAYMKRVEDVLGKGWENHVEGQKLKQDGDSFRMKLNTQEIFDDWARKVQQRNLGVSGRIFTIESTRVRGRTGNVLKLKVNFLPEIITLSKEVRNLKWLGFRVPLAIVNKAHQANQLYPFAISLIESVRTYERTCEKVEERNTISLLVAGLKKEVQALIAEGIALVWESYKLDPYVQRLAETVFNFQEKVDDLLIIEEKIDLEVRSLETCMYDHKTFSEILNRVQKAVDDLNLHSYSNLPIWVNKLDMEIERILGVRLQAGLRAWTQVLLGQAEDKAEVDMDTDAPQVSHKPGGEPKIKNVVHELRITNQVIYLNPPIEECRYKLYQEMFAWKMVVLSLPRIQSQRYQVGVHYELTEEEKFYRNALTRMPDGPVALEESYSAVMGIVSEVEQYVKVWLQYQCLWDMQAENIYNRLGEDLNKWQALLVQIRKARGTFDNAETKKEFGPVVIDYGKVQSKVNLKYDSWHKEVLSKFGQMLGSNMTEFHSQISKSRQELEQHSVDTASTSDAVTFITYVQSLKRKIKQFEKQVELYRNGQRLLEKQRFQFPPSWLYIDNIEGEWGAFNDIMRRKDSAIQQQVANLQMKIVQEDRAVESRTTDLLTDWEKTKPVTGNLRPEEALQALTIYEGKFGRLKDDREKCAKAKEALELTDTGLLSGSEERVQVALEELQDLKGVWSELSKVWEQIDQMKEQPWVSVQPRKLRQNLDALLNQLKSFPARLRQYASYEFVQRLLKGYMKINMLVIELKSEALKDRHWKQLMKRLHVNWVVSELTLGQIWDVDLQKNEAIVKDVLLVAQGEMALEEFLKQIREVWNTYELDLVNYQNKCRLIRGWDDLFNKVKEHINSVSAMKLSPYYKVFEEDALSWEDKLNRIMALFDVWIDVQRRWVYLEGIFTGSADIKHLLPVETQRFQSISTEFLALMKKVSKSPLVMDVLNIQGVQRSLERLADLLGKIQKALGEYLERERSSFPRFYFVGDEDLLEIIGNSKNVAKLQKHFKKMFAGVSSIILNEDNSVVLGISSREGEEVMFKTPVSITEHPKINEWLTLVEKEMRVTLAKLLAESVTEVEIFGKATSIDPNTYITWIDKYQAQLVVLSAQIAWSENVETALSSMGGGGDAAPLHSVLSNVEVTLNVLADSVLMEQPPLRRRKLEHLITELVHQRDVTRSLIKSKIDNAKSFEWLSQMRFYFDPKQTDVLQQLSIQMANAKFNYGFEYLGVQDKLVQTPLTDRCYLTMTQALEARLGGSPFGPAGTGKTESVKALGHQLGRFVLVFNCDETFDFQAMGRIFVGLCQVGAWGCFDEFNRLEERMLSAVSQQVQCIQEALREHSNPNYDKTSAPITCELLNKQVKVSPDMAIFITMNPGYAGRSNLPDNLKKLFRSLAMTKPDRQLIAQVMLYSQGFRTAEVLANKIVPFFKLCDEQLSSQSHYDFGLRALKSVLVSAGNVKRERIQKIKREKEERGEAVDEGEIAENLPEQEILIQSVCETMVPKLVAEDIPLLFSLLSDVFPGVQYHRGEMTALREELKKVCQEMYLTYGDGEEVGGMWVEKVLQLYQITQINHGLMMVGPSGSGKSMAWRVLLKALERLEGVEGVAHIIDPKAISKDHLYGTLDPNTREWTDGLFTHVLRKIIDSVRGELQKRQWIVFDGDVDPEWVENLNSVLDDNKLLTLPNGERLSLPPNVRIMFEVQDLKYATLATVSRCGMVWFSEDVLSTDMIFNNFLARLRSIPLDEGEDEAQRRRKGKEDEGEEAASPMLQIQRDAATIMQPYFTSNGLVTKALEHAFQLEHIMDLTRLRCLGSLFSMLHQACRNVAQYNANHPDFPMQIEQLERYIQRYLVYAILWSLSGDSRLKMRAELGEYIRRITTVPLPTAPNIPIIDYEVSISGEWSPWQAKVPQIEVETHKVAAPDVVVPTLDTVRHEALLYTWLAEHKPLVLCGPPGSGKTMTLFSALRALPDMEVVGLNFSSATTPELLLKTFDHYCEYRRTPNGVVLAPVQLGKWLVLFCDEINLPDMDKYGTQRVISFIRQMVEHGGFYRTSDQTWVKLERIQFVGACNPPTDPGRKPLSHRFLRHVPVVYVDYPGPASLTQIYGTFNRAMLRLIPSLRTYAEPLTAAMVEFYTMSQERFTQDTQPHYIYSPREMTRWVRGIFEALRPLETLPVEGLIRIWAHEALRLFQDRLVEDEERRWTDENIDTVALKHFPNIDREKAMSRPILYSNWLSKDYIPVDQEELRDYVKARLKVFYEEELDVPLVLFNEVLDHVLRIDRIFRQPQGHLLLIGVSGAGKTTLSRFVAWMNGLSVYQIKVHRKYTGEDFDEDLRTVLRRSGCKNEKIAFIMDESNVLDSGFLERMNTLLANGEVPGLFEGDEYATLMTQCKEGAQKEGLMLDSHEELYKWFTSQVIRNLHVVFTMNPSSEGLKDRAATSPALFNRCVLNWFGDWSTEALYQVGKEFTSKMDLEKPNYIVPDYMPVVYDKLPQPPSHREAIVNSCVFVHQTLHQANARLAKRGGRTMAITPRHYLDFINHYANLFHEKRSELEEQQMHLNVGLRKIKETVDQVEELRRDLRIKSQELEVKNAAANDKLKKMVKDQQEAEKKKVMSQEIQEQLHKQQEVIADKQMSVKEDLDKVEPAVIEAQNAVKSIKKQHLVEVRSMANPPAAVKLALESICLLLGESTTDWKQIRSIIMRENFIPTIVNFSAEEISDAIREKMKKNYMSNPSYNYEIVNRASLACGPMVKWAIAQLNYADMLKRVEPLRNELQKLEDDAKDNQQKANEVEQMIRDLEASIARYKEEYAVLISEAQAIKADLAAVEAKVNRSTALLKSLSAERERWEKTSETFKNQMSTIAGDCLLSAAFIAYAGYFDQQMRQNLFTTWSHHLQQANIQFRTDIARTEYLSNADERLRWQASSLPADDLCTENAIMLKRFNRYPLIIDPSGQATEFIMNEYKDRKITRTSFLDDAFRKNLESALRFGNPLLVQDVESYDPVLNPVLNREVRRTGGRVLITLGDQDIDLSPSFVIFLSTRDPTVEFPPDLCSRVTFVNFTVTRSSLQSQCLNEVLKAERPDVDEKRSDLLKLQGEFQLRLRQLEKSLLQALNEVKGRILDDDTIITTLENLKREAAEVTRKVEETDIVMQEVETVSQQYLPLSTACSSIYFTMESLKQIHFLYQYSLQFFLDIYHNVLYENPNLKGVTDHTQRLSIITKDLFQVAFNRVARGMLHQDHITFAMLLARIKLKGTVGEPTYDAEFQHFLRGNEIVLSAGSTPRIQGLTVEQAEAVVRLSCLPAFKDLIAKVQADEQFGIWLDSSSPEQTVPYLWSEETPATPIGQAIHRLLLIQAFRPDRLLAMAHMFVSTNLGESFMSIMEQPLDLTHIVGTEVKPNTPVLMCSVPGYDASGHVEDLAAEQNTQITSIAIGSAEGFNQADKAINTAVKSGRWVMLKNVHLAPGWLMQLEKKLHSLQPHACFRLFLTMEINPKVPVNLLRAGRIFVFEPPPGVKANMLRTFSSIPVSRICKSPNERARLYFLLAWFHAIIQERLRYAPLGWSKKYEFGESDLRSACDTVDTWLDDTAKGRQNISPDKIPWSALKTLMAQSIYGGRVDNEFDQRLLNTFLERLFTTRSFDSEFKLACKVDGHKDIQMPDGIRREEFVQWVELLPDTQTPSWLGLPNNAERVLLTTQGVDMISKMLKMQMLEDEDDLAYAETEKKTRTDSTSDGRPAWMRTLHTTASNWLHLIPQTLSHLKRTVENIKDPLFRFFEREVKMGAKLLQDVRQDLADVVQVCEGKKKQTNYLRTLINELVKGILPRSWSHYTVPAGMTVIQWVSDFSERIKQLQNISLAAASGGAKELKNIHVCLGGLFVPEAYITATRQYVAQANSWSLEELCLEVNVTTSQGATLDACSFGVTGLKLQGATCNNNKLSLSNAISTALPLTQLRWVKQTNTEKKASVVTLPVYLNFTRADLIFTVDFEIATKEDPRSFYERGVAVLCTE
UniProt Q92785, whole entry, looked up: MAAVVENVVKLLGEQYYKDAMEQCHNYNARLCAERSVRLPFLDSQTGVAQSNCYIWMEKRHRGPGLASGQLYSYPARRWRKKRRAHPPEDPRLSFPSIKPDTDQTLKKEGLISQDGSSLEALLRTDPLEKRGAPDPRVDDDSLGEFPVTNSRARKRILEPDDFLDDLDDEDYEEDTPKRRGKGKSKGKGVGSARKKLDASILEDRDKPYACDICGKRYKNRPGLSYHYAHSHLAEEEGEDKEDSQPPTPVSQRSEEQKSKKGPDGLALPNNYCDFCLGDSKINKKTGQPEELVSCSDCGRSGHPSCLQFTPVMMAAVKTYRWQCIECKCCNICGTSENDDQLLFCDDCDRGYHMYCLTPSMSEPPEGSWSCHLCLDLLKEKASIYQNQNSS
UniProt O00559: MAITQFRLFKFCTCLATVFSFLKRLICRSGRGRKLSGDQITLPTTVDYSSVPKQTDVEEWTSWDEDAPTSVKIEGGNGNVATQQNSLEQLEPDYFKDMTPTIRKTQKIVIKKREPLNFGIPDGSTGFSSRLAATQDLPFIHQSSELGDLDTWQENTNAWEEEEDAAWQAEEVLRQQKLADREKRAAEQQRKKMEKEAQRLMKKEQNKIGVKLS

Assays:
Assay in all cases: log2 fold change, soluble protein after heating vs DMSO (PISA); higher = thermal stabilisation; K562 lysate, 10 uM; active = over 0.2 and 3.5 SD of the protein, either way, in both replicates (recomputed)
alvocidib = compound: CN1CC[C@H](c2c(O)cc(O)c3c(=O)cc(-c4ccccc4Cl)oc23)[C@H](O)C1 [alvocidib]
How it was run: (§1)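 Dounce homogenisation of K562 pellets in PBS pH 7.4 with 1 mM MgCl2 produced a crude extract, used at 1 mg/mL protein. Exposure to 10 μM compound lasted 30 min, and aliquots were then heated for 3 min across 48°C-58°C, pooled and brought to 0.5% NP-40 at 4°C. The supernatant after 21,000xg for 90 min was quantified by TMTpro 16plex LC-MS/MS with channel sums equalised. Duplicate values are given as log-two fold change in thermal stability relative to solvent controls.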

Tubastatin A = compound: CN1CCc2c(c3ccccc3n2Cc2ccc(C(=O)NO)cc2)C1 [Tubastatin A]
How it was run: as §1

[1] = compound: CNC(=O)C1=CC=CC=C1NC2=NC(=NC=C2Cl)NC3=C(C=C(C=C3)N4CCOCC4)OC
How it was run: as §1

defactinib = compound: CNC(=O)c1ccc(Nc2ncc(C(F)(F)F)c(NCc3nccnc3N(C)S(C)(=O)=O)n2)cc1 [defactinib]
How it was run: as §1

[2] = compound: CNc1nc(-c2ccc3c(N)n[nH]c3c2)cc(N2C[C@@H](C(=O)NC3CCCCC3)CC[C@H]2C)n1
How it was run: as §1

encorafenib = compound: COC(=O)N[C@@H](C)CNc1nccc(-c2cn(C(C)C)nc2-c2cc(Cl)cc(NS(C)(=O)=O)c2F)n1 [encorafenib]
How it was run: as §1

[3] = compound: COC(=O)[C@H](CCSC)NC(=O)C1=C(C=C(C=C1)NC[C@H](CS)N)C2=CC=CC=C2
How it was run: as §1

alisertib = compound: COc1cc(Nc2ncc3c(n2)-c2ccc(Cl)cc2C(c2c(F)cccc2OC)=NC3)ccc1C(=O)O [alisertib]
How it was run: as §1

[4] = compound: COc1cc2nc(-c3cc(F)ccc3O)nc(N[C@@H]3CNC[C@H]3C(C)(C)O)c2cc1OC
How it was run: as §1

gefitinib = compound: COc1cc2ncnc(Nc3ccc(F)c(Cl)c3)c2cc1OCCCN1CCOCC1 [gefitinib]
How it was run: as §1

lapatinib = compound: CS(=O)(=O)CCNCc1ccc(-c2ccc3ncnc(Nc4ccc(OCc5cccc(F)c5)c(Cl)c4)c3c2)o1 [lapatinib]
How it was run: as §1

pictilisib = compound: CS(=O)(=O)N1CCN(Cc2cc3nc(-c4cccc5[nH]ncc45)nc(N4CCOCC4)c3s2)CC1 [pictilisib]
How it was run: as §1

crizotinib = compound: C[C@@H](Oc1cc(-c2cnn(C3CCNCC3)c2)cnc1N)c1c(Cl)ccc(F)c1Cl [crizotinib]
How it was run: as §1

[5] = compound: C[C@H](C1=CC=C(C=C1)C(=O)NC2=C3C=CNC3=NC=C2)N
How it was run: as §1

duvelisib = compound: C[C@H](Nc1ncnc2nc[nH]c12)c1cc2cccc(Cl)c2c(=O)n1-c1ccccc1 [duvelisib]
How it was run: as §1

gandotinib = compound: Cc1cc(Nc2cc(CN3CCOCC3)c3nc(C)c(Cc4ccc(Cl)cc4F)n3n2)n[nH]1 [gandotinib]
How it was run: as §1

tozasertib = compound: Cc1cc(Nc2cc(N3CCN(C)CC3)nc(Sc3ccc(NC(=O)C4CC4)cc3)n2)n[nH]1 [tozasertib]
How it was run: as §1

doramapimod = compound: Cc1ccc(-n2nc(C(C)(C)C)cc2NC(=O)Nc2ccc(OCCN3CCOCC3)c3ccccc23)cc1 [doramapimod]
How it was run: as §1

bafetinib = compound: Cc1ccc(NC(=O)c2ccc(CN3CC[C@H](N(C)C)C3)c(C(F)(F)F)c2)cc1Nc1nccc(-c2cncnc2)n1 [bafetinib]
How it was run: as §1

[6] = compound: Cc1cccc(CC(=O)N2CCc3c2ccc(-c2cn(C)c4ncnc(N)c24)c3F)n1
How it was run: as §1

Measured: log2 fold change

DPH2 (UniProt Q9BQC3)
inactive: alvocidib -0.028 | Tubastatin A 0.042 | [1] -0.039 | defactinib 0.02 | [2] 0.031 | encorafenib -0.044 | [3] 0.044 | alisertib -0.01 | [4] 0.011 | gefitinib -0.051 | lapatinib 0.016 | pictilisib 0.004 | crizotinib -0.038 | [5] 0.034 | duvelisib -0.017 | gandotinib 0.04 | tozasertib -0.003 | doramapimod 0.061 | bafetinib -0.01 | [6] -0.02

EDEM1 (UniProt Q92611)
inactive: alvocidib 0.053 | Tubastatin A 0.102 | [1] -0.005 | defactinib 0.023 | [2] -0.019 | encorafenib 0.109 | [3] 0.017 | alisertib 0.057 | [4] 0.028 | gefitinib -0.002 | lapatinib 0.058 | pictilisib -0.072 | crizotinib -0.098 | [5] -0.023 | duvelisib 0.016 | gandotinib -0.042 | tozasertib -0.008 | doramapimod 0.013 | bafetinib 0.069 | [6] -0.026

DYNC1I2 isoform 5 (UniProt Q13409)
inactive: alvocidib 0.002 | Tubastatin A 0.007 | [1] -0.021 | defactinib -0.011 | [2] 0.012 | encorafenib -0.007 | [3] -0.012 | alisertib -0.011 | [4] 0.004 | gefitinib 0.006 | lapatinib -0.003 | pictilisib -0.017 | crizotinib -0.003 | [5] -0.004 | duvelisib -0.002 | gandotinib 0.009 | tozasertib 0.012 | doramapimod 0.006 | bafetinib 0.03 | [6] -0.003

Reprinted at random: two records from the list.
DYNC1I2 isoform 5 (UniProt Q13409)
inactive: alvocidib 0.002 | Tubastatin A 0.007 | [1] -0.021 | defactinib -0.011 | [2] 0.012 | encorafenib -0.007 | [3] -0.012 | alisertib -0.011 | [4] 0.004 | gefitinib 0.006 | lapatinib -0.003 | pictilisib -0.017 | crizotinib -0.003 | [5] -0.004 | duvelisib -0.002 | gandotinib 0.009 | tozasertib 0.012 | doramapimod 0.006 | bafetinib 0.03 | [6] -0.003

EDEM1 (UniProt Q92611)
inactive: alvocidib 0.053 | Tubastatin A 0.102 | [1] -0.005 | defactinib 0.023 | [2] -0.019 | encorafenib 0.109 | [3] 0.017 | alisertib 0.057 | [4] 0.028 | gefitinib -0.002 | lapatinib 0.058 | pictilisib -0.072 | crizotinib -0.098 | [5] -0.023 | duvelisib 0.016 | gandotinib -0.042 | tozasertib -0.008 | doramapimod 0.013 | bafetinib 0.069 | [6] -0.026

(continued)

DSTN (UniProt P60981)
inactive: alvocidib -0.011 | Tubastatin A -0.089 | [1] 0.015 | defactinib 0.002 | [2] -0.072 | encorafenib -0.011 | [3] -0.071 | alisertib -0.013 | [4] -0.02 | gefitinib -0.043 | lapatinib 0.01 | pictilisib 0.008 | crizotinib 0.007 | [5] -0.02 | duvelisib -0.001 | gandotinib -0.023 | tozasertib 0.031 | doramapimod -0.015 | bafetinib 0.057 | [6] 0.019

DTNBP1 (UniProt Q96EV8)
inactive: alvocidib -0.034 | Tubastatin A 0.024 | [1] -0.008 | defactinib -0.057 | [2] 0.002 | encorafenib -0.051 | [3] -0.035 | alisertib 0.002 | [4] 0.009 | gefitinib 0.014 | lapatinib -0.01 | pictilisib 0 | crizotinib -0.038 | [5] 0.013 | duvelisib -0.017 | gandotinib 0.092 | tozasertib 0.092 | doramapimod 0.04 | bafetinib -0.025 | [6] -0.032

EFCAB14 (UniProt O75071)
inactive: alvocidib -0.056 | Tubastatin A 0.077 | [1] 0.01 | defactinib -0.007 | [2] -0.058 | encorafenib 0.038 | [3] -0.086 | alisertib 0.063 | [4] 0.012 | gefitinib -0.131 | lapatinib -0.051 | pictilisib -0.058 | crizotinib 0.006 | [5] 0.037 | duvelisib 0.022 | gandotinib 0.064 | tozasertib 0.086 | doramapimod 0.011 | bafetinib -0.002 | [6] -0.084

EDARADD (UniProt Q8WWZ3)
inactive: alvocidib -0.015 | Tubastatin A -0.003 | [1] 0.019 | defactinib 0.009 | [2] -0.068 | encorafenib 0.013 | [3] -0.072 | alisertib -0.075 | [4] 0.027 | gefitinib 0.043 | lapatinib -0.037 | pictilisib -0.122 | crizotinib 0.027 | [5] -0.049 | duvelisib 0.015 | gandotinib 0.074 | tozasertib 0.082 | doramapimod 0.086 | bafetinib 0 | [6] -0.027

EIF1 (UniProt P41567)
inactive: alvocidib -0.033 | Tubastatin A 0.084 | [1] -0.039 | defactinib -0.013 | [2] -0.02 | encorafenib -0.017 | [3] -0.032 | alisertib -0.006 | [4] 0.005 | lapatinib 0.053 | pictilisib 0.016 | crizotinib 0.002 | [5] -0.051 | duvelisib 0.044 | gandotinib 0.068 | tozasertib -0.008 | doramapimod -0.092 | bafetinib 0.052 | [6] 0.021
active: gefitinib -0.247

ECHS1 (UniProt P30084)
inactive: alvocidib 0.031 | Tubastatin A -0.017 | [1] 0.015 | defactinib 0.012 | [2] -0.021 | encorafenib -0.046 | [3] 0.035 | alisertib -0.008 | [4] 0.008 | gefitinib -0.011 | lapatinib -0.02 | pictilisib -0.039 | crizotinib 0.025 | [5] 0 | duvelisib -0.002 | gandotinib 0.151 | tozasertib -0.001 | doramapimod -0.027 | bafetinib 0.037 | [6] -0.037

DUS4L (UniProt O95620)
inactive: alvocidib 0.001 | Tubastatin A -0.012 | [1] -0.028 | defactinib 0.024 | [2] 0.079 | encorafenib 0.06 | [3] -0.006 | alisertib -0.03 | [4] 0.053 | gefitinib 0.057 | lapatinib 0.001 | pictilisib 0.056 | crizotinib -0.048 | [5] -0.021 | duvelisib 0.057 | gandotinib 0.023 | tozasertib -0.019 | doramapimod -0.009 | bafetinib -0.071 | [6] 0.045

DYNC1H1 (UniProt Q14204)
inactive: alvocidib 0.009 | Tubastatin A -0.009 | [1] -0.003 | defactinib 0.026 | [2] -0.035 | encorafenib 0.01 | [3] 0.122 | alisertib 0.009 | [4] 0.005 | gefitinib -0.017 | lapatinib -0.012 | pictilisib -0.013 | crizotinib -0.021 | [5] 0.007 | duvelisib -0.017 | gandotinib -0.088 | tozasertib 0.006 | doramapimod 0.012 | bafetinib -0.024 | [6] -0.001

EFL1 (UniProt Q7Z2Z2)
inactive: alvocidib 0.03 | Tubastatin A -0.034 | [1] 0.043 | defactinib -0.006 | [2] -0.018 | encorafenib 0.003 | [3] 0.04 | alisertib 0.015 | [4] -0.007 | gefitinib 0.002 | lapatinib 0.013 | pictilisib -0.023 | crizotinib -0.024 | [5] 0.035 | duvelisib 0.026 | gandotinib -0.073 | tozasertib 0.005 | doramapimod 0.024 | bafetinib 0.012 | [6] -0.019

DPF2 (UniProt Q92785)
inactive: alvocidib 0.035 | Tubastatin A 0.025 | [1] 0.028 | defactinib 0.033 | [2] 0.064 | encorafenib 0.057 | [3] -0.04 | alisertib -0.033 | [4] 0.021 | gefitinib -0.012 | lapatinib -0.016 | pictilisib -0.017 | crizotinib 0.013 | [5] 0.065 | duvelisib -0.008 | gandotinib -0.035 | tozasertib 0.004 | doramapimod 0.071 | bafetinib -0.069 | [6] -0.024

DUT (UniProt P33316)
inactive: alvocidib -0.027 | Tubastatin A 0.036 | [1] -0.002 | defactinib -0.022 | [2] 0.013 | encorafenib -0.026 | [3] -0.039 | alisertib 0.034 | [4] -0.014 | gefitinib -0.01 | lapatinib -0.005 | pictilisib 0.007 | crizotinib 0.025 | [5] -0.05 | duvelisib 0.043 | gandotinib 0.056 | tozasertib -0.033 | doramapimod -0.022 | bafetinib 0.106 | [6] 0.003

EBAG9 isoform 2 (UniProt O00559)
inactive: alvocidib 0.032 | Tubastatin A 0.022 | [1] 0.047 | defactinib 0.001 | [2] -0.032 | encorafenib -0.006 | [3] -0.02 | alisertib -0.053 | [4] 0.02 | gefitinib -0.033 | lapatinib -0.081 | pictilisib 0.03 | crizotinib -0.021 | [5] -0.012 | duvelisib -0.159 | gandotinib 0.111 | tozasertib -0.03 | doramapimod 0.071 | bafetinib -0.023 | [6] -0.03

EEF1B2 (UniProt P24534)
inactive: alvocidib -0.001 | Tubastatin A 0.031 | [1] -0.031 | defactinib -0.009 | [2] -0.005 | encorafenib -0.029 | [3] 0.027 | alisertib 0.008 | [4] 0.003 | gefitinib 0.003 | lapatinib -0.03 | pictilisib 0.034 | crizotinib 0.012 | [5] -0.001 | duvelisib 0.034 | gandotinib -0.003 | tozasertib -0.026 | doramapimod -0.002 | bafetinib 0.055 | [6] 0.011
